Laboratory results: PubChem BioAssay AID1259254 (NCATS, 2017)
The deposit covers about 59,000 reagents; below is a random part of them. About 1,550 of them (2.6%) were called active. 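G2 share is only a proxy for re-replication; each gene was hit by three separate siRNAs, and active genes were retested.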 Reagents against one gene are numbered here. Further read-outs or replicates are left out here. Not stated in the record: the amount of reagent.

Assay: 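Genome-wide screen for genes that prevent DNA re-replication in cancer cells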 (primary screen)
Cells: human HCT116 colorectal cancer cells
Knock-down reagent: single siRNA against human genes
Duration: 3 days
Measurement: 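Imaged Hoechst DNA stain sorts each cell into a cycle phase by DNA amount; per plate, G2 fraction set to 0% for non-targeting and 100% for GMNN siRNA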
Reading the numbers: G2 robust z-score: higher = more G2 cells, more excess DNA replication
Rule for the call: 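Active siRNAs have a G2 robust z of 5 or more median absolute deviations over the median, which in these data means about 38% or higher of GMNN control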

ADPGK #1 — G2 robust z-score = 1.03; Outcome = inactive
ADPGK #2 — G2 robust z-score = -0.472; Outcome = inactive
ADPGK #3 — G2 robust z-score = 0.68; Outcome = inactive
SPRING1 #1 — G2 robust z-score = 0.597; Outcome = inactive
SPRING1 #2 — G2 robust z-score = 0.716; Outcome = inactive
SPRING1 #3 — G2 robust z-score = 0.398; Outcome = inactive
INHBB #1 — G2 robust z-score = 1.25; Outcome = inactive
INHBB #2 — G2 robust z-score = 0.576; Outcome = inactive
INHBB #3 — G2 robust z-score = 2.16; Outcome = inactive
TMEM139 #1 — G2 robust z-score = 1.06; Outcome = inactive
TMEM139 #2 — G2 robust z-score = -0.646; Outcome = inactive
TMEM139 #3 — G2 robust z-score = -0.416; Outcome = inactive
ABHD10 #1 — G2 robust z-score = -0.871; Outcome = inactive
ABHD10 #2 — G2 robust z-score = -0.167; Outcome = inactive
ABHD10 #3 — G2 robust z-score = 3.22; Outcome = inactive
JCAD #1 — G2 robust z-score = 0.185; Outcome = inactive
JCAD #2 — G2 robust z-score = -1.2; Outcome = inactive
JCAD #3 — G2 robust z-score = 4.38; Outcome = inactive
SEPTIN4 #1 — G2 robust z-score = 2.51; Outcome = inactive
SEPTIN4 #2 — G2 robust z-score = -0.965; Outcome = inactive
SEPTIN4 #3 — G2 robust z-score = 1.87; Outcome = inactive
SEPTIN4 #4 — G2 robust z-score = 0.151; Outcome = inactive
SEPTIN4 #5 — G2 robust z-score = 4.66; Outcome = inactive
SEPTIN4 #6 — G2 robust z-score = 1.11; Outcome = inactive
DOCK7 #1 — G2 robust z-score = 1.73; Outcome = inactive
DOCK7 #2 — G2 robust z-score = -0.451; Outcome = inactive
DOCK7 #3 — G2 robust z-score = -0.375; Outcome = inactive
KRT38 #1 — G2 robust z-score = -0.483; Outcome = inactive
KRT38 #2 — G2 robust z-score = -0.0928; Outcome = inactive
KRT38 #3 — G2 robust z-score = 6.08; Outcome = active

3 entries already listed, sorted by “G2 robust z-score”, low to high.
KRT38 #1 — G2 robust z-score = -0.483; Outcome = inactive
KRT38 #2 — G2 robust z-score = -0.0928; Outcome = inactive
KRT38 #3 — G2 robust z-score = 6.08; Outcome = active
